# Reference: article PMC8915953 (Frontiers in Microbiology, 2022)
# Protein sequences, listed by entry. Tags and fused reporters are not part of them.
# UniProt Q01628: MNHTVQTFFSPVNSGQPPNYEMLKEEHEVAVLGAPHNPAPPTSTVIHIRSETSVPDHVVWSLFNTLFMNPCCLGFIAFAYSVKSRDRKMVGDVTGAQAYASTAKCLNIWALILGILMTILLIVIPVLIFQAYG
# UniProt Q01629: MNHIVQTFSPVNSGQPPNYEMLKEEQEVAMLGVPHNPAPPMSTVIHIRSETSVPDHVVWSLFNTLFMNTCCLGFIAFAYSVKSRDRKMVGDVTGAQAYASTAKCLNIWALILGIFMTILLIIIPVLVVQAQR
# UniProt P13164: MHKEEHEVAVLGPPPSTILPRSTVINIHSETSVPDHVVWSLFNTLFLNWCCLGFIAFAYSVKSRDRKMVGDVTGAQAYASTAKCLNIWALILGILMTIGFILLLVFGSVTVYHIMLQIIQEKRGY
# No constants are given. Whether binding was seen depends on the method and setting. In cells and extracts the contact can be indirect. Some binding calls cover weakened binding; strength is not graded here. For some of these results: Sequences can lack the tags named with a protein.
# B1: endogenous ZMPSTE24 (protein, UniProt O75844 1-475)
# chain: MGMWASLDALWEMPAEKRIFGAVLLFSWTVYLWETFLAQRQRRIYKTTTHVPPELGQIMDSETFEKSRLYQLDKSTFSFWSGLYSETEGTLILLFGGIPYLWRLSGRFCGYAGFGPEYEITQSLVFLLLATLFSALTGLPWSLYNTFVIEEKHGFNQQTLGFFMKDAIKKFVVTQCILLPVSSLLLYIIKIGGDYFFIYAWLFTLVVSLVLVTIYADYIAPLFDKFTPLPEGKLKEEIEVMAKSIDFPLTKVYVVEGSKRSSHSNAYFYGFFKNKRIVLFDTLLEEYSVLNKDIQEDSGMEPRNEEEGNSEEIKAKVKNKKQGCKNEEVLAVLGHELGHWKLGHTVKNIIISQMNSFLCFFLFAVLIGRKELFAAFGFYDSQPTLIGLLIIFQFIFSPYNEVLSFCLTVLSRRFEFQADAFAKKLGKAKDLYSALIKLNKDNLGFPVSDWLFSMWHYSHPPLLERLQALKTMKQH
# B2: ZMPSTE24-FLAG (protein, UniProt O75844 1-475)
# chain: B1 chain
# What was measured:
# [1] = biological target: IFITM3 tagged at the N terminus with LgBiT or SmBiT (human) (UniProt Q01628); test: split reporter
# [2] = biological target: endogenous IFITM3 (human (endogenous in A549)) (UniProt Q01628); test: co-IP
# [3] = biological target: endogenous IFITM2 (human (endogenous in A549)) (UniProt Q01629); test: co-IP
# [4] = biological target: endogenous IFITM1 (human (endogenous in A549)) (UniProt P13164); test: co-IP
molecule,measurement,setting,value
IFITM3 tagged at the N terminus with LgBiT or SmBiT (from UniProt Q01628 1-133),binding,[1],binds
B1,binding,[2],binds
same,binding,[3],binds
same,binding,[4],binds
B2,binding,[2],binds
same,binding,[3],binds
same,binding,[4],binds
